Source: PubChem BioAssay AID743255 (National Center for Advancing Translational Sciences (NCATS), 2014)
Among all 390,000 compounds or so, about 910 (0.23%) were called active. The inconclusive results got no clear call from the source; some entries with a clear call stand among them for comparison. The call rests on the fitted dose curve; in most records, active means well fitted inhibition curve with a large enough effect; inconclusive means small, poorly fitted or top-dose-only effect; inactive means no such curve, though single readings can be large or run the other way. Where the call is inconclusive, the potency comes from a doubtful curve fit.

By UniProt entry, the sequences of proteins in these tests, tags left out. Where a name states a change or a piece, a line headed by the entry shows the natural chain unless it says otherwise.
UniProt O94782: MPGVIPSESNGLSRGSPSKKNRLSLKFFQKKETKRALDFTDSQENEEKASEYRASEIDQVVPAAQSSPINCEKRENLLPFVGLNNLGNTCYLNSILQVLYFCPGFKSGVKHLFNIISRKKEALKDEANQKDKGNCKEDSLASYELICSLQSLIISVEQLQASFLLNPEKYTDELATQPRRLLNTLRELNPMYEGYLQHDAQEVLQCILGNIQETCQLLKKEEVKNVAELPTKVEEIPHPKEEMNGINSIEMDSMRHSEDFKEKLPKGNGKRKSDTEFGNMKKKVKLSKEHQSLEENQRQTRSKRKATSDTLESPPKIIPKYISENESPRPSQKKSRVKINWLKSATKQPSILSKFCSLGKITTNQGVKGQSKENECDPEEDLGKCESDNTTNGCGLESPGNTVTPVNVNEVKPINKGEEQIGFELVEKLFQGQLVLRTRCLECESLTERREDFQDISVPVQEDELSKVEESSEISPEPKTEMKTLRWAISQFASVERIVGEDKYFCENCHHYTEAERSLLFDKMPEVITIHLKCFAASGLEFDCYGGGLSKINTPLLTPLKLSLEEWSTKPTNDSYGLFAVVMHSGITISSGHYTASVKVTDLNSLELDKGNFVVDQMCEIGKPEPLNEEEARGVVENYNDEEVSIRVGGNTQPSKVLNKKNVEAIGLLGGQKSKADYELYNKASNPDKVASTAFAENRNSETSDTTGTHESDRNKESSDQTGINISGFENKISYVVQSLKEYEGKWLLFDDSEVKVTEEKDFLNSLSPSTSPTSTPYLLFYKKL

molecular target: Ubiquitin carboxyl-terminal hydrolase 1 (Homo sapiens) (UniProt O94782); experiment: Inhibitors of USP1/UAF1: Primary Screen; conditions: recombinant USP1/UAF1, Ub-Rhodamine cleavage fluorescence; activity change, negative = inhibition: at 57.1 µM (top of the series); further: nearly all actives have a fitted effect of over 60% in size
How it was run: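 USP1/UAF1 complex (1 nM) preincubated 15 min at room temperature with compound, then Ub-Rho substrate (150 nM final) added. Kinetic fluorescence at 480/540 nm over 6 reads at 60 s intervals; 50 mM HEPES pH 7.8, 0.5 mM EDTA, 0.1 mg/ml BSA, 1 mM TCEP, 0.01% Tween-20.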
On the % scale 0 is the no-effect control and ±100 the full control effect; potency means the concentration at half of the fitted maximal effect.

| Compound | Potency | activity change, negative = inhibition |
| --- | --- | --- |
| CCOc1ccc(CNCCN2CCCC2)cc1 | inactive | – |
| O=C(NCc1ccccc1)C1=C[C@@H](c2ccc(Br)cc2)C[C@@H](OCCCCO)O1 | inconclusive: 44.7 µM [inhibitor, partial curve, poor fit] | – |
| Cc1ccc(-n2ccnc2SCC(=O)N(CC(C)C)C2CCS(=O)(=O)C2)c(C)c1 (centres undefined) | inactive | – |
| Cc1cc2c(n1-c1ccc(C(=O)NCc3cccc(Br)c3)cc1)CCC(C)C2 (centres undefined) | inconclusive: 20 µM [inhibitor, partial curve, poor fit] | – |
| NC(=O)c1cc2cc(Cl)ccc2oc1=Nc1cccc(C(F)(F)F)c1 | inconclusive: 50.1 µM [inhibitor, partial curve, poor fit] | – |
| CCOc1ccc(N(CC(=O)OC)S(=O)(=O)c2c(C)noc2C)cc1 | inconclusive: 31.6 µM [inhibitor, partial curve] | – |
| CCN(CC)C(=O)Cn1cnc([N+](=O)[O-])n1 | inconclusive: 39.8 µM [inhibitor, partial curve, poor fit] | – |
| O=C(Nc1nnc(N2CCCC2)s1)Nc1cc(F)ccc1F | inconclusive: 7.08 µM [inhibitor, partial curve] | – |
| COc1ccc(NC(=O)CCn2nc(-c3ccc(Cl)cc3)c3ccccc3c2=O)cc1 | inconclusive: 0.251 µM [inhibitor, full curve, poor fit] | – |
| CCOC(=O)N1CCN(C2=C(NS(=O)(=O)c3ccc(C)cc3)C(=O)c3ccccc3C2=O)CC1 | active: 22.4 µM | – |
| O=C(CSc1ncccn1)NCc1ccc2c(c1)OCO2 | inconclusive: 7.94 µM [inhibitor, partial curve, poor fit] | – |
| CC(C)Nc1cc(N2CCN(C3CCCCC3)CC2)c2noc3c2c1C(=O)c1ccccc1-3 | inactive | – |
| CCCn1nc(-c2ccccc2)c2nc3ccccc3nc21 | inconclusive: 3.16 µM [inhibitor, partial curve, poor fit] | – |
| CC(OC(=O)c1ccc(O)cc1)C(=O)Nc1ccc(Oc2ccccc2)cc1 (centres undefined) | inconclusive: 5.62 µM [inhibitor, full curve, poor fit] | – |
| COc1ccc(OC)c(S(=O)(=O)N2CCC(NC(=O)c3ccccc3)CC2)c1 | inactive | – |
| CCOc1ccc(C(=O)Nc2c(C)nc(Nc3ccccc3)nc2Nc2ccccc2)cc1OCC | inconclusive: 20 µM [inhibitor, partial curve, poor fit] | – |
| CCN(CC)S(=O)(=O)c1ccc(/C=C/C(=O)OCC(=O)N(C)C)cc1 | inconclusive: 0.708 µM [inhibitor, full curve, poor fit] | – |
| CCN1CCN(c2cc(C)c3cc(NC(=O)Cc4ccc(OC)c(OC)c4)ccc3n2)CC1 | inconclusive: 39.8 µM [inhibitor, partial curve] | – |
| Cc1ccccc1C(=O)Nc1ccccc1N1CCCCC1 | inconclusive: 56.2 µM [inhibitor, partial curve, poor fit] | – |
| CCOc1ccc(C(=O)N2CCN(S(=O)(=O)c3ccc4c(c3)OCCO4)CC2)cc1OCC | inconclusive: 112 µM [inhibitor, partial curve, poor fit] | – |
| CCCOc1ccc(CNC(=O)CCCN2C(=O)CSc3c2c(C)nn3-c2ccccc2)cc1 | inconclusive: 79.4 µM [inhibitor, partial curve, poor fit] | – |
| O=C(Nc1c(Br)cc2c(c1Br)Cc1ccccc1-2)C(F)(F)F | inconclusive: 25.1 µM [inhibitor, partial curve] | – |

Some of the entries above, set out differently:
CC(C)Nc1cc(N2CCN(C3CCCCC3)CC2)c2noc3c2c1C(=O)c1ccccc1-3
  Potency: inactive
CCCn1nc(-c2ccccc2)c2nc3ccccc3nc21
  Potency: inconclusive: 3.16 µM [inhibitor, partial curve, poor fit]

Continuation.

| Compound | Potency | activity change, negative = inhibition |
| --- | --- | --- |
| Cc1ccsc1C=C1C(=O)c2ccccc2C1=O | inactive | – |
| Cn1c(N)c(C(=O)COC(=O)CNC(=O)c2ccc(Cl)cc2Cl)c(=O)n(C)c1=O | inconclusive: 7.08 µM [inhibitor, single point] | – |
| CC(=O)N1c2ccc(S(=O)(=O)N3CCCC(C(=O)Nc4ccc(C)cc4C)C3)cc2CC1C (centres undefined) | inconclusive: 35.5 µM [inhibitor, partial curve, poor fit] | – |
| O=C(NOCc1ccccc1)c1ccc(Cl)cc1Cl | inactive | – |
| O=C(C1CCN(S(=O)(=O)c2c(Cl)cccc2Cl)CC1)N1CCCC1 | inconclusive: 4.47 µM [inhibitor, full curve, poor fit] | – |
| Cc1ccccc1OCC(=O)N/N=C/c1ccc([N+](=O)[O-])o1 | inactive | – |
| Cc1onc(-c2c(F)cccc2Cl)c1C(=O)OCC(=O)c1c[nH]c2ccccc12 | inactive | – |
| CCOc1ccc(-c2cc(NC(=O)Nc3ccccc3Cl)c(C(=O)OC)s2)cc1 | inconclusive: 50.1 µM [inhibitor, single point] | – |
| Cc1ccccc1CSc1nc2c([nH]c3ccccc32)c(=O)n1-c1ccccc1 | inactive | – |
| CCOc1ccc(NS(=O)(=O)c2ccc(C(=O)N3CCN(c4ncccn4)CC3)cc2)cc1 | inconclusive: 39.8 µM [inhibitor, partial curve, poor fit] | – |
| CCCC[n+]1ccn(C2=C([O-])c3ccccc3C(=O)/C2=N\S(=O)(=O)c2ccccc2)c1 | inconclusive: 31.6 µM [inhibitor, partial curve] | – |
| O=C(CCCCCn1c(=O)[nH]c2ccsc2c1=O)NCc1ccccc1 | inconclusive: 79.4 µM [inhibitor, partial curve, poor fit] | – |
| COc1ccccc1CNC(=O)CSc1nc2nc(C)c(Cc3ccccc3C)c(C)n2n1 | inconclusive: 5.01 µM [inhibitor, partial curve] | – |
| CCCCNC(=O)C1COc2ccccc2O1 (centres undefined) | inconclusive: 35.5 µM [inhibitor, single point] | – |
| Cc1ccccc1OCCSc1nc2ccc(NC(=O)c3ccco3)cc2s1 | inconclusive: 35.5 µM [inhibitor, partial curve, poor fit] | – |
| COc1cc(/C=C2/C(=N)N3C(c4ccccc4)=CSC3=NC2=O)ccc1OCC(=O)O | inconclusive: 50.1 µM [inhibitor, partial curve, poor fit] | – |
| CC1CCc2noc(NC(=O)c3ccc([N+](=O)[O-])cc3)c2C1 (centres undefined) | inconclusive: 3.55 µM [inhibitor, partial curve] | – |
| C=CCSc1nnc(-c2cc3c(-c4ccccc4)nn(C)c3s2)n1C | inactive | – |
| CCOC(=O)c1nccnc1C(=O)Nc1ccc(C(F)(F)F)cc1 | inconclusive: 2.51 µM [inhibitor, partial curve] | – |
| COC(=O)c1ccccc1NC(=O)Cn1c(=O)n(-c2ccc(C)cc2)c(=O)c2ccccc21 | inconclusive: 0.631 µM [inhibitor, full curve] | – |
| CCC(=O)Nc1ccc(-c2nc3ncccc3o2)cc1C | inconclusive: 6.31 µM [inhibitor, single point] | – |
| O=C(c1ccccc1C(=O)N1CCN(c2ccccc2)CC1)N1CCN(c2ccccc2)CC1 | inconclusive: 39.8 µM [inhibitor, single point] | – |

Fetched one by one from above (three):

| Compound | Potency | activity change, negative = inhibition |
| --- | --- | --- |
| Cc1ccccc1OCCSc1nc2ccc(NC(=O)c3ccco3)cc2s1 | inconclusive: 35.5 µM [inhibitor, partial curve, poor fit] | – |
| Cc1onc(-c2c(F)cccc2Cl)c1C(=O)OCC(=O)c1c[nH]c2ccccc12 | inactive | – |
| O=C(CCCCCn1c(=O)[nH]c2ccsc2c1=O)NCc1ccccc1 | inconclusive: 79.4 µM [inhibitor, partial curve, poor fit] | – |

(continued)

| Compound | Potency | activity change, negative = inhibition |
| --- | --- | --- |
| Cc1ccc(C2N3CC4(C)CN2CC(c2ccccc2)(C3)C4=O)cc1 (centres undefined) | inactive | – |
| CCn1cc(/C=C(\NC(=O)c2ccccc2Cl)C(=O)NCCCn2ccnc2)c2ccccc21 | inconclusive: 39.8 µM [inhibitor, single point] | – |
| Cc1cc(Nc2c(C)n(C)n(-c3ccccc3)c2=O)c2ccccc2n1 | inconclusive: 44.7 µM [inhibitor, partial curve, poor fit] | – |
| COc1ccc(C(=O)OCc2c(-c3cccc(OC)c3)ncc3ccccc23)cc1 | inconclusive: 50.1 µM [inhibitor, single point] | – |
| CCOC(=O)C1CCN(S(=O)(=O)c2cccc3nonc23)CC1 | inactive | – |
| CCOC(=O)c1[nH]c(C)c(C(=O)N(CC)CC)c1C | inactive | – |
| Cc1nn(Cc2ccc(Cl)cc2)c(C)c1NC(=O)CSc1nc2c(c(C(F)(F)F)n1)CCc1ccccc1-2 | inactive | – |
| CCCCCCN(C(=O)CCCN1C(=O)NC(c2ccc([N+](=O)[O-])cc2)C(C(=O)OCc2ccccc2)=C1C)C(C)C(=O)NCCCC (centres undefined) | inconclusive: 44.7 µM [inhibitor, partial curve, poor fit] | – |
| COC(=O)c1cc(NC(=O)Cn2ncc3c([nH]c4ccccc43)c2=O)cc(C(=O)OC)c1 | inconclusive: 5.01 µM [inhibitor, partial curve] | – |
| CC1CCN(S(=O)(=O)c2ccc3c(c2)N(CC(=O)NCCN(C)C)C(=O)CS3)CC1 | inconclusive: 2.51 µM [inhibitor, full curve, poor fit] | – |
| O=S(=O)(N=C1C=CC(=NS(=O)(=O)c2ccccc2)c2ccccc21)c1ccccc1 | active: 28.2 µM | – |
| Cc1ccc2c(CC(=O)Nc3ccc(S(=O)(=O)N4CCCC(C)C4)cc3)coc2c1 (centres undefined) | inconclusive: 50.1 µM [inhibitor, single point] | – |
| O=C(NNC(=O)c1ccc(F)cc1F)c1ccc2c(c1)OCO2 | inconclusive: 5.62 µM [inhibitor, partial curve] | – |
| COc1ccc2c(Cl)c(C(=O)N/N=C/c3ccc4c(c3)OCO4)sc2c1 | inactive | – |
| CCOC(=O)NC(=O)/C(C#N)=C\c1ccccc1 | – | inconclusive: -13.5% [inhibitor] |
| FC(F)c1nc2ccccc2[nH]1 | inactive | – |
| CCCc1nn2c(=O)cc(COC(=O)c3ccccc3NC(=O)c3ccc(OCC)cc3)nc2s1 | inconclusive: 44.7 µM [inhibitor, partial curve, poor fit] | – |
| CC(C)C(C(=O)O)N1C(=O)/C(=C/c2cccn2C)SC1=S (centres undefined) | inconclusive: 35.5 µM [inhibitor, partial curve] | – |
| COc1ccc(C(=O)c2sc3nc(-c4ccccc4)ccc3c2N)cc1 | inconclusive: 50.1 µM [inhibitor, partial curve, poor fit] | – |
| Nc1ncc(N=Nc2cc(C(=O)O)ccc2Cl)s1 | inconclusive: 44.7 µM [inhibitor, partial curve] | – |
